In all, about 33,000 sequences were measured (“E-score (-0.5 to 0.5)”: median about -0.016, highest 2% from about 0.3 on). This is one part of the list.
Target: T1, Yer184c (UniProt P39961)
T1 sequence: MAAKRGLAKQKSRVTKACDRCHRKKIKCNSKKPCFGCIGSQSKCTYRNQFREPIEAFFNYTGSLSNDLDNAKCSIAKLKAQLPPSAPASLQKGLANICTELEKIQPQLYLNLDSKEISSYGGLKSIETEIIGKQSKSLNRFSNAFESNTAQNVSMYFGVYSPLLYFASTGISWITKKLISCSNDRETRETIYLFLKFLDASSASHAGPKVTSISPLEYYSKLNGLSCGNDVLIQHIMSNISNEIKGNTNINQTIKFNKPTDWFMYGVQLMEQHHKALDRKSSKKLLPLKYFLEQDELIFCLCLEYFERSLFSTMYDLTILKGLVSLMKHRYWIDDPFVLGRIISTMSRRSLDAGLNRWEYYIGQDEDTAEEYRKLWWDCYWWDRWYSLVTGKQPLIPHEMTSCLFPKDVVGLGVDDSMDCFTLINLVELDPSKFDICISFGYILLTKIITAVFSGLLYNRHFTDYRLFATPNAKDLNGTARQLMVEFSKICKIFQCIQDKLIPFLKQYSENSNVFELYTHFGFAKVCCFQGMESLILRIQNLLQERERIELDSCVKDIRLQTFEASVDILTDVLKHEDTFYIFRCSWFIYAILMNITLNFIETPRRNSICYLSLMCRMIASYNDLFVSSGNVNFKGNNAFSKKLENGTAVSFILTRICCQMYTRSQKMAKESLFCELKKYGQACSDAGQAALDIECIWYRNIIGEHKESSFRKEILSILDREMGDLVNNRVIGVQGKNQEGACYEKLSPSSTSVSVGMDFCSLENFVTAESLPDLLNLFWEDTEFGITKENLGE
Test: PBM E-score (8-mer binding enrichment) (E-score (-0.5 to 0.5)); higher = stronger / more preferred TF binding
Conditions: protein concentration: 100 nM; construct: GST-full length
Summary of the method: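 Universal all-10-mer Agilent arrays, double-stranded by primer extension on fresh or once-stripped slides, were probed with about 100-200 nM GST-tagged yeast transcription factors made by PURExpress. Fluorescent anti-GST detected bound protein, and masliner normalised the scans. E-scores from the Universal PBM Analysis Suite were given to each ungapped eight-base word pooled with its reverse complement.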

Sequence | PBM E-score
TCTTCTCA | 0.0598
CGCGGGAG | -0.167
ACCAGAGT | -0.251
CAGGAGCC | -0.158
AGTGCGCA | -0.0316
ACTACGAT | 0.0304
ATGCGCCG | 0.164
GTGGCACA | -0.186
AGGTTGGC | -0.3
AGTGTACC | -0.258
CCGATGAA | 0.203
TAGCCCGA | 0.0471
CTGGTTCC | 0.047
GCCGGCGC | 0.406
CTTTTTTC | 0.114
ACCTGCTA | -0.00094
ACTTATCC | 0.178
AGTTGAGG | -0.00602
GCCTGGAC | -0.138
AAGGTTTC | -0.0314
ATTGAATC | -0.0312
AGAGAAGG | -0.16
ATTTCACG | 0.147
AGACTAAG | -0.0179
GAGCTTGA | -0.0376

Rewritten tab-delimited: part of the list above
Sequence	PBM E-score
AGGTTGGC	-0.3
AGTGTACC	-0.258

Further results follow:

Sequence | PBM E-score
CGGAACCC | 0.279
GTCCGCAA | 0.148
ATGGCAGG | 0.043
GGAGTCAC | -0.142
GCCTTTCA | 0.00092
AGACAAGG | -0.0717
ATGGGCGA | -0.242
ACTATGAA | -0.0044
CGCAGCTC | -0.167
GCGTCTAA | -0.0135
AAATACTC | 0.184
AGGTCGCG | -0.0119
CGAGAGGC | -0.21
ACCTACCA | -0.255
CGCTAGAA | -0.00437
ATGGCGGG | 0.00659
CGGCAGCA | 0.0779
TCGTGGCA | -0.00509
CGACTTCC | -0.124
GCGCTTAA | -0.112
ACACTGGA | 0.0234
GCTGTATA | -0.0828
AACGCCGT | 0.119
AATCAGCG | 0.164
CCTATTGC | -0.119

Sequence | PBM E-score
AAATACCT | -0.105
AAATTCTC | 0.0709
GCATGGGA | -0.159
CGACCTGA | -0.00346
GATCCCAA | -0.16
GAAGGTTA | 0.0472
ATAACTTC | 0.202
GCCACTGA | -0.0754
CCCTTGAG | 0.0101
AAGGAGGA | -0.0377
CCATAACG | 0.0326
GGAAAATA | 0.239
GAGCCTGA | -0.133
AACGTCTA | 0.0553
GACATACA | 0.0469
ACTAACTG | -0.0468
GTAGAGGA | -0.122
CATTTGTC | 0.0286
GCCAGAGA | -0.0888
CATGAGGG | -0.212
CATACTGA | -0.0139
ACCCTCGG | 0.211
CAATGCTA | -0.00612
CGTTTGCA | 0.0194
CCGCTCGC | 0.124

Sequence | PBM E-score
CAAGGAAC | 0.168
AGGCCAAA | 0.0579
CTGTCGAA | -0.118
AGTGATAA | 0.0452
GCTTAAGA | 0.0346
AAGATTCG | 0.226
AAAGCAAG | 0.14
AGCTAACG | -0.0595
CTCAAGGA | 0.0167
AAGCGCTG | 0.0039
TCAGCCGA | 0.272
ACCCATAG | -0.342
AAGACCTC | -0.208
GCAGGACA | 0.11
CTGTTACA | 0.0127
CCTCGCTA | -0.277
ATATAAGA | 0.213
ACCCGTTA | 0.106
AAATAAGA | 0.154
ATCGTAAG | -0.143
CCCGCGAA | -0.0181
ACTGCCGC | 0.214
AGTAAAAC | -0.0175
CGTGCATC | -0.225
GAAGATCC | 0.0722

Sequence | PBM E-score
CAGCTAGA | -0.109
AACGTTTG | -0.0728
CATAGAAC | -0.208
AGATAACA | 0.0929
GTGCTCTA | -0.102
ATGCAGAC | -0.0797
TCAGGCAA | -0.158
CCCATGAA | -0.132
CTTCCAAA | 0.0435
CGGAGCTC | 0.104
CCTTTTAC | 0.0344
AACAAATG | -0.0255
ACTTAGAT | 0.109
GGACATAC | 0.12
ATCATATG | 0.147
AAGTCTGG | -0.131
CAGCAGCA | -0.147
AGTCTGCA | -0.197
GATAACGA | -0.0402
GACTCGCA | -0.108
ATGTAGAG | -0.0432
ATCCATCG | -0.124
CCCTCTAG | -0.336
CACAATGA | -0.0364
CAAAATTG | -0.0804

Part of the list above, in markdown:

| Sequence | PBM E-score |
| --- | --- |
| ATCATATG | 0.147 |
| AAGTCTGG | -0.131 |
| CAGCAGCA | -0.147 |
| AGTCTGCA | -0.197 |

A few values from the results shown.
Under PBM E-score, CACAATGA reads -0.0364
Under PBM E-score, AGATAACA reads 0.0929

(continued)

Sequence | PBM E-score
CCCTCTGC | -0.376
CCGATACA | 0.168
AATGGCGG | 0.013
CTCAAACC | -0.0293
ATGCTGCG | -0.277
CGAGGGAG | -0.164
CACAGTAG | 0.0246
CCATCTTA | 0.0202
GTACAGAC | 0.0782
ACTAGTTG | -0.244
AATCGGTC | 0.147
ATAAAACA | 0.0824
CGCCACAC | -0.2
ACCTCGTA | -0.0386
CCATAGCA | -0.25
AACCCGGC | 0.329
AGTCGGGA | 0.0709
GACTGCGC | -0.163
TAGGGGCA | -0.357
GCTCTTCA | -0.187
CGGATGAA | 0.351
CTTTAAAC | -0.052
CATACTCA | -0.0092
GGCTGACC | -0.236
ATAGGCGA | -0.0581

Sequence | PBM E-score
GATAACCA | -0.044
AACAATCG | 0.0627
CGGTCTAC | 0.0119
CGTTAGTA | 0.0541
ACTGGGGC | -0.18
CGACGAGC | -0.0899
CCTTAAGC | -0.0568
TCGGAGAA | 0.237
AGGACATG | -0.173
TCGAGCAA | 0.171
CCCCTAGC | -0.37
GGCACGCA | -0.142
ACAGTAAC | -0.0119
ACGCGGGG | 0.0659
CACTGCTA | -0.0956
CGTCCGAG | 0.16
AACTAGTG | -0.0163
AGTCGGGG | -0.204
CAATCCTA | -0.0715
AGACCTAG | -0.0887
ACTAAGTA | 0.0167
AAGGGCGC | -0.00573

Source: the supplement of paper PMC3334620
